Measurements as given in US5652105.
For some of these results: Negatives hold for the conditions tested. For some of these results: At least one result comes from cells or an extract, where the contact may be indirect. For some of these results: Construct, isoform or probe ends are uncertain for at least one entry.

Protein sequences, listed by entry. Tags and fused reporters are not part of them. Lines headed by an entry give the natural chain unless they say otherwise; changes in a name come on top.
UniProt P13864: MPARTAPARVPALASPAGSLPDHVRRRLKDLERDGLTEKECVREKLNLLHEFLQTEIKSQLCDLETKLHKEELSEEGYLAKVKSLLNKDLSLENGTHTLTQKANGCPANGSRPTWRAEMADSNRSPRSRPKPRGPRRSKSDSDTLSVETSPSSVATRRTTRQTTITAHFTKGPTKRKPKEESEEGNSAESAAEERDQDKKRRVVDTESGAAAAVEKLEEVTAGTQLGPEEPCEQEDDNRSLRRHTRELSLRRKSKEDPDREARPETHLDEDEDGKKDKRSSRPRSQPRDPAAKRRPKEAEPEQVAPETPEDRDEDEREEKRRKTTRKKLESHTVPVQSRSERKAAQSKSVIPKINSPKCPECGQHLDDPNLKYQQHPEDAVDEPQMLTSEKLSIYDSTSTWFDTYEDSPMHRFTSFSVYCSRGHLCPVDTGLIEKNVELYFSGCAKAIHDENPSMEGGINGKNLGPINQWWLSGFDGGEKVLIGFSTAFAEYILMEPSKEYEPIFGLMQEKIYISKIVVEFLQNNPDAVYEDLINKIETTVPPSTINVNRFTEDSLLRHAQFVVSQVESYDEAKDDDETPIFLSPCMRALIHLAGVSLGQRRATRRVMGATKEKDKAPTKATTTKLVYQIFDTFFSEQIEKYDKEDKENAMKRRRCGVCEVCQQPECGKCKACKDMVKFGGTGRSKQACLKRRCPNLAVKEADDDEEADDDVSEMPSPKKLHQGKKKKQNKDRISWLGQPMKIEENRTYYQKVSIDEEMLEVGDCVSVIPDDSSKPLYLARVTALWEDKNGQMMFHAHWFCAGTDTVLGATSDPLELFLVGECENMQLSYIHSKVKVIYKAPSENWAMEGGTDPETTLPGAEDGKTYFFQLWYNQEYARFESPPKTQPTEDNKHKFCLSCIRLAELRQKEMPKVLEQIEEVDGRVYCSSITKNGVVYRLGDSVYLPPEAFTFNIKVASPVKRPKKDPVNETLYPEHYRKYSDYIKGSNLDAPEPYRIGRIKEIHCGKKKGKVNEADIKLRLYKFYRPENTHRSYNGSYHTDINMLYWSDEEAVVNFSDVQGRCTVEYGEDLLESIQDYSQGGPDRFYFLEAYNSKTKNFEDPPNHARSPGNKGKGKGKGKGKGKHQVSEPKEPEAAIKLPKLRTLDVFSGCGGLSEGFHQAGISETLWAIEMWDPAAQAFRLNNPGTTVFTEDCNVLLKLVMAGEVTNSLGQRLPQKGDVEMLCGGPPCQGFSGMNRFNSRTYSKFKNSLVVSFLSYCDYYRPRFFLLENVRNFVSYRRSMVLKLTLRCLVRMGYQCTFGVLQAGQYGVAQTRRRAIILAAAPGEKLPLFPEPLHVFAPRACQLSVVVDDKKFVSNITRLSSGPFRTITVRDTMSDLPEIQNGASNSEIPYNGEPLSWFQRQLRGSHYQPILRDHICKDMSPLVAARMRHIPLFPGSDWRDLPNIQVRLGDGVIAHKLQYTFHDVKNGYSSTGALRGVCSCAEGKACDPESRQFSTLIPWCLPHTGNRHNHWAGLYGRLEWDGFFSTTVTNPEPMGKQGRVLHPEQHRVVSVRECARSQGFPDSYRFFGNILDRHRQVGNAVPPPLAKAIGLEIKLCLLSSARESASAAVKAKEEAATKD
UniProt P15840: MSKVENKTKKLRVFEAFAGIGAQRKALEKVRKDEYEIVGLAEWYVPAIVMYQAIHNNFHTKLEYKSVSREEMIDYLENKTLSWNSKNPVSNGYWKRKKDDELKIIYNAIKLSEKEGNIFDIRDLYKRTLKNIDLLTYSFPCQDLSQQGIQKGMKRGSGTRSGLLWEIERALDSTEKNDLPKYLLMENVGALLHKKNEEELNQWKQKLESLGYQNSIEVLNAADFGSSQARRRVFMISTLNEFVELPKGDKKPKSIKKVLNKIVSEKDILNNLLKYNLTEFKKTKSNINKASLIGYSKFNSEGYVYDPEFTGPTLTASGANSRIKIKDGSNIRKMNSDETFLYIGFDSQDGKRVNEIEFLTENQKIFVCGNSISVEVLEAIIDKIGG

Assays:
[1] = biological target: DNA 5-C-methyltransferase (murine, Friend erythroleukemia cells) (Mus musculus) (UniProt P13864); experiment: activity assay; conditions: 5mC at all CpG C of both strands [strand 1: 5mC at 5,12,18,20; strand 2: 5mC at 4,6,12,19]; fully methylated, no methyl transfer detected; protein in an …; letters built from the parent sequence and the stated change; variant of S+AS (A.A')
[2] = biological target: DNA 5-C-methyltransferase (murine, Friend erythroleukemia cells) (Mus musculus) (UniProt P13864); experiment: inhibition of the protein; conditions: 5mC at 7,11,17, 5-fluoro-C at 5,12,18,20 [5mC at 7,11,17, methylation fully inhibited, 5FC in substrate site traps enzyme covalently, protein in an extract, single-stranded DNA, letters built from the parent sequence and the stated change, variant of M2 (AMx)
[3] = test system: Hpa II DNA methyltransferase; experiment: binding assay; conditions: ss ODNs not substrates at 37 C; purified native protein; single-stranded DNA
[4] = biological target: DNA 5-C-methyltransferase (murine, Friend erythroleukemia cells) (Mus musculus) (UniProt P13864); experiment: binding assay; conditions: no methyl transfer detected, protein in an extract, single-stranded DNA
[5] = biological target: M.SssI (bacterial SSS1 CpG methyltransferase) (UniProt P15840); experiment: activity assay; conditions: 5mC at 5,12,18,20 [5mC at 5,12,18,20]; background 1351; purified native protein; single-stranded DNA; letters built from the parent sequence and the stated change; variant of AS (A); counted as no effect

**Q.** “ATTGCGCATTCCGGATCCGCGATC (double strand) [AMp.A'Mp]” was tested. Which “activity on this sequence” value [1] did it give?
**A.** not active

**Q.** Does “ATTGCGCATTCCGGATCCGCGATC [AMx F5,12,18,20]” bind [2]?
**A.** binds

**Q.** Does ATTGCGCATTCCGGATCCGCGATC [AS (A)] bind [3]?
**A.** no binding

**Q.** What does the source list for ATTGCGCATTCCGGATCCGCGATC [M1 (AMp)]?
**A.** binding result ([4]; 5mC at 5,12,18,20 [5mC at 5,12,18,20], letters built from the parent sequence and the stated change, variant of AS (A)): no binding; activity on this sequence [5]: 2340 cpm

**Q.** Does GATCGCGGATCCGGAATGCGCAAT [M3 (SMp)] bind ([4]; 5mC at 4,6,12,19, variant of S (A'))?
**A.** no binding

**Q.** Does GATCGCGGATCCGGAATGCGCAAT [S (A')] bind [3]?
**A.** no binding
